The results in this text go back to US10052387B2, “Ceramide reversal of multi-drug resistance” (Memorial Sloan-Kettering Cancer Center, priority 2013, dated 2018).

One series concerns ADX cells. Nature of the series: Transfer of radiolabeled ceramide from liposomes into ADX cells. Format: cell-based, Chinese hamster.
In another series the test system is ADX MDR cells. The series is described as follows: Daunorubicin-containing cytoplasmic vesicles in ADX cells. The note with it: 20 μm daunorubicin, steady-state at 2 hours. Format: cell-based, Chinese hamster.

As for `CCCCCCCCCCCCC/C=C/[C@@H](O)[C@H](CO)NC(=O)CCCCCCCCCCCCCCCCC` [C18:0 ceramide], the “ceramide incorporated into ADX cells” value in the series on ADX cells (10 μM 14C-labeled C18:0 ceramide, two hours) was determined as 339±12 pmoles/106 cells. Also, in the series with ADX cells (3H-labeled ceramide-containing liposomes, 2 h), the “uptake by cells relative to C16:0 ceramide” value is “about 50%”.
For `COc1cccc2c1C(=O)c1c(O)c3c(c(O)c1C2=O)C[C@@](O)(C(C)=O)C[C@@H]3O[C@H]1C[C@H](N)[C@H](O)[C@H](C)O1` [daunorubicin], in the series on ADX MDR cells, the “mean diameter of vesicles” value came to 0.67 ± 0.01 µM and the vesicles per cell was determined as 38±6.
